Measurements: US20160304957A1, “TREATMENT AND MODULATION OF GENE EXPRESSION AND SKIN AGING” (DSM NUTRITIONAL PRODUCTS LTD., priority 2006, published 2016)

Test system: HaCaT human keratinocytes
Experiment: Affymetrix GeneChip microarray, transcriptional response to β-carotene and/or UVA
Type: cell-based
Protocol: The cell culture experiments were carried out as described. Briefly, a subclone of passage 65 HaCaT keratinocytes, selected for differentiation capacity, was used at passages 16 to 23 after subcloning. 2×10^5 cells were seeded per 60 millimeter dish. Starting the following day, the cells were pretreated for 2 days with β-carotene at 1.5 μM, a typical concentration in human plasma after moderate dietary supplementation)
β-carotene-containing medium was prepared as follows. Fresh all-E-β-carotene (DSM Nutritional Products, Kaiseraugst, Switzerland) stock solution in THF (containing 0.025% BHT; Fluka Chemie A G, Switzerland) was diluted 1:2 with ethanol and added to cell culture medium to a final concentration of 1.5 μM β-carotene. The solvent concentration in the medium was 0.5% for all treatments. β-carotene-containing medium was prepared fresh for the daily medium changes.
On day 3 of the experiment, the cells were irradiated with a Hönle sun lamp Sol 500 (270 kJ/m^2; Dr. Hönle, Germany).
Five independent, factorially designed cell irradiation experiments were analyzed by microarray hybridization. For each experiment, one chip was hybridized per treatment condition. GeneChip® analysis was done as described in [132], which is incorporated by reference, as if recited in full herein. Gene regulation by β-carotene and/or UVA was calculated relative to placebo.
Changes in gene expression were included in further analysis only if the change factor was […], and if unpaired t-tests yielded p values≦0.05. Upregulations by a […] are labeled bold, downregulations by a change factor of […] are labeled bold italics. (Table 1) To identify the pathways affected by the treatments functional information on the genes was retrieved from public literature databases.

CC1=C(/C=C/C(C)=C/C=C/C(C)=C/C=C/C=C(C)/C=C/C=C(C)/C=C/C2=C(C)CCCC2(C)C)C(C)(C)CCC1 [β-carotene, All-E-β-carotene]
number of genes regulated (co-treatment with UVA radiation and β-carotene): 1142 genes | number of UVA-regulated genes with UVA effect enhanced (of 568 UVA-regulated genes): 180 genes | number of UVA-regulated genes with UVA effect reduced (of 568 UVA-regulated genes): 143 genes | number of UVA-regulated genes with no effect (of 568 UVA-regulated genes): 245 genes | number of genes regulated (β-carotene 1.5 μM alone): 381 genes
